The results in this text go back to the supplement of paper PMC11732987, “Enantioselective OTUD7B fragment discovery through chemoproteomics screening and high-throughput optimisation” (Communications Chemistry, 2025).

The chains behind the UniProt entries cited, without tags or fusion partners. Where a name states a change or a piece, a line headed by the entry shows the natural chain unless it says otherwise. Residues count along the entry.
UniProt Q9H270: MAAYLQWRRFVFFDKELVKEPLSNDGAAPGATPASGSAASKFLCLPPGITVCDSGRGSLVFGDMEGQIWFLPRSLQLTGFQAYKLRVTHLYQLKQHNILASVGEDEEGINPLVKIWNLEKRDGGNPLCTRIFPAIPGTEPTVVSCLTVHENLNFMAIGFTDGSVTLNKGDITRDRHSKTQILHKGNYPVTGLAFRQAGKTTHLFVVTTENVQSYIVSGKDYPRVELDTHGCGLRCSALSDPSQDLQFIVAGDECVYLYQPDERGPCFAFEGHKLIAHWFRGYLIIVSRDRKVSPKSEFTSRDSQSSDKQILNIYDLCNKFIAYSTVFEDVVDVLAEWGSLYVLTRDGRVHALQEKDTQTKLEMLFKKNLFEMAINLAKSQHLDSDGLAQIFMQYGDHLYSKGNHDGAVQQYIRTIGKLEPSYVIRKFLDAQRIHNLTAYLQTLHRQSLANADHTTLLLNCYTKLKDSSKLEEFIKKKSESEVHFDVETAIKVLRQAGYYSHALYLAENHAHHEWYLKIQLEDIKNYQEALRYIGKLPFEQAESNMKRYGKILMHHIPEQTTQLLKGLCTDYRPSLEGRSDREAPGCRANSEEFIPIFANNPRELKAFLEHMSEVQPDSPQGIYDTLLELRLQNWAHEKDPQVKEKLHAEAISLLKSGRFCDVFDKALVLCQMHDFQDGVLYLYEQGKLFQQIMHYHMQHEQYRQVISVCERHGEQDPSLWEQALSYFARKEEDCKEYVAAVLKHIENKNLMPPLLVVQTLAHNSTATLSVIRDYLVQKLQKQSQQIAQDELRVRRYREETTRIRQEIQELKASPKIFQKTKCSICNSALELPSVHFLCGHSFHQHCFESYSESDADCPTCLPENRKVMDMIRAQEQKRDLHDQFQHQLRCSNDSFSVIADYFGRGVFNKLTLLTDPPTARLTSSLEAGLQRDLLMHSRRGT
UniProt Q9P253: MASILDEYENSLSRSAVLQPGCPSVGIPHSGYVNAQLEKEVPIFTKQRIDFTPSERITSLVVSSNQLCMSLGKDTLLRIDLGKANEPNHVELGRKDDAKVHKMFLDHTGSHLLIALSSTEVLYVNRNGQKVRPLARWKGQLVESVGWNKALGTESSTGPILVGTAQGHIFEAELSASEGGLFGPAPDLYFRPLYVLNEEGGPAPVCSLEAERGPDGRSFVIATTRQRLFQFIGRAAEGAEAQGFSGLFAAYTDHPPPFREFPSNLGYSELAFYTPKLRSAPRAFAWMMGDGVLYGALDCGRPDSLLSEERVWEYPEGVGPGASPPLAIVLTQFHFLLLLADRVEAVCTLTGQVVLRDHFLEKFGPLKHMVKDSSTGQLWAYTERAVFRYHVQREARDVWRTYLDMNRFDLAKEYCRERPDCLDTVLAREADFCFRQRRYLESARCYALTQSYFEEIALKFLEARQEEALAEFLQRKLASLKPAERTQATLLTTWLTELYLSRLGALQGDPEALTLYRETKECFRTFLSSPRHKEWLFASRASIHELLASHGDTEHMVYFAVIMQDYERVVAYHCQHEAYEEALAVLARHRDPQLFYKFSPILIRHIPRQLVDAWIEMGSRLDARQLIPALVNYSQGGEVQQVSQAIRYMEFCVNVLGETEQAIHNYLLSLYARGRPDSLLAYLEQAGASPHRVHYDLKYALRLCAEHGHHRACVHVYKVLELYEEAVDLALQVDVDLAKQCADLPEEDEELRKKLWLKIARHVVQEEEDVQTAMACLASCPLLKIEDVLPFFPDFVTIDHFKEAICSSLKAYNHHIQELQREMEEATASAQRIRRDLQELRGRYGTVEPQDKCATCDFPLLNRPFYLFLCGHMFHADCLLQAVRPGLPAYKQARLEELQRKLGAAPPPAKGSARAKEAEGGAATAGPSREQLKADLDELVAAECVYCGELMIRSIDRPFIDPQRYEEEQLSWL
UniProt Q70CQ2: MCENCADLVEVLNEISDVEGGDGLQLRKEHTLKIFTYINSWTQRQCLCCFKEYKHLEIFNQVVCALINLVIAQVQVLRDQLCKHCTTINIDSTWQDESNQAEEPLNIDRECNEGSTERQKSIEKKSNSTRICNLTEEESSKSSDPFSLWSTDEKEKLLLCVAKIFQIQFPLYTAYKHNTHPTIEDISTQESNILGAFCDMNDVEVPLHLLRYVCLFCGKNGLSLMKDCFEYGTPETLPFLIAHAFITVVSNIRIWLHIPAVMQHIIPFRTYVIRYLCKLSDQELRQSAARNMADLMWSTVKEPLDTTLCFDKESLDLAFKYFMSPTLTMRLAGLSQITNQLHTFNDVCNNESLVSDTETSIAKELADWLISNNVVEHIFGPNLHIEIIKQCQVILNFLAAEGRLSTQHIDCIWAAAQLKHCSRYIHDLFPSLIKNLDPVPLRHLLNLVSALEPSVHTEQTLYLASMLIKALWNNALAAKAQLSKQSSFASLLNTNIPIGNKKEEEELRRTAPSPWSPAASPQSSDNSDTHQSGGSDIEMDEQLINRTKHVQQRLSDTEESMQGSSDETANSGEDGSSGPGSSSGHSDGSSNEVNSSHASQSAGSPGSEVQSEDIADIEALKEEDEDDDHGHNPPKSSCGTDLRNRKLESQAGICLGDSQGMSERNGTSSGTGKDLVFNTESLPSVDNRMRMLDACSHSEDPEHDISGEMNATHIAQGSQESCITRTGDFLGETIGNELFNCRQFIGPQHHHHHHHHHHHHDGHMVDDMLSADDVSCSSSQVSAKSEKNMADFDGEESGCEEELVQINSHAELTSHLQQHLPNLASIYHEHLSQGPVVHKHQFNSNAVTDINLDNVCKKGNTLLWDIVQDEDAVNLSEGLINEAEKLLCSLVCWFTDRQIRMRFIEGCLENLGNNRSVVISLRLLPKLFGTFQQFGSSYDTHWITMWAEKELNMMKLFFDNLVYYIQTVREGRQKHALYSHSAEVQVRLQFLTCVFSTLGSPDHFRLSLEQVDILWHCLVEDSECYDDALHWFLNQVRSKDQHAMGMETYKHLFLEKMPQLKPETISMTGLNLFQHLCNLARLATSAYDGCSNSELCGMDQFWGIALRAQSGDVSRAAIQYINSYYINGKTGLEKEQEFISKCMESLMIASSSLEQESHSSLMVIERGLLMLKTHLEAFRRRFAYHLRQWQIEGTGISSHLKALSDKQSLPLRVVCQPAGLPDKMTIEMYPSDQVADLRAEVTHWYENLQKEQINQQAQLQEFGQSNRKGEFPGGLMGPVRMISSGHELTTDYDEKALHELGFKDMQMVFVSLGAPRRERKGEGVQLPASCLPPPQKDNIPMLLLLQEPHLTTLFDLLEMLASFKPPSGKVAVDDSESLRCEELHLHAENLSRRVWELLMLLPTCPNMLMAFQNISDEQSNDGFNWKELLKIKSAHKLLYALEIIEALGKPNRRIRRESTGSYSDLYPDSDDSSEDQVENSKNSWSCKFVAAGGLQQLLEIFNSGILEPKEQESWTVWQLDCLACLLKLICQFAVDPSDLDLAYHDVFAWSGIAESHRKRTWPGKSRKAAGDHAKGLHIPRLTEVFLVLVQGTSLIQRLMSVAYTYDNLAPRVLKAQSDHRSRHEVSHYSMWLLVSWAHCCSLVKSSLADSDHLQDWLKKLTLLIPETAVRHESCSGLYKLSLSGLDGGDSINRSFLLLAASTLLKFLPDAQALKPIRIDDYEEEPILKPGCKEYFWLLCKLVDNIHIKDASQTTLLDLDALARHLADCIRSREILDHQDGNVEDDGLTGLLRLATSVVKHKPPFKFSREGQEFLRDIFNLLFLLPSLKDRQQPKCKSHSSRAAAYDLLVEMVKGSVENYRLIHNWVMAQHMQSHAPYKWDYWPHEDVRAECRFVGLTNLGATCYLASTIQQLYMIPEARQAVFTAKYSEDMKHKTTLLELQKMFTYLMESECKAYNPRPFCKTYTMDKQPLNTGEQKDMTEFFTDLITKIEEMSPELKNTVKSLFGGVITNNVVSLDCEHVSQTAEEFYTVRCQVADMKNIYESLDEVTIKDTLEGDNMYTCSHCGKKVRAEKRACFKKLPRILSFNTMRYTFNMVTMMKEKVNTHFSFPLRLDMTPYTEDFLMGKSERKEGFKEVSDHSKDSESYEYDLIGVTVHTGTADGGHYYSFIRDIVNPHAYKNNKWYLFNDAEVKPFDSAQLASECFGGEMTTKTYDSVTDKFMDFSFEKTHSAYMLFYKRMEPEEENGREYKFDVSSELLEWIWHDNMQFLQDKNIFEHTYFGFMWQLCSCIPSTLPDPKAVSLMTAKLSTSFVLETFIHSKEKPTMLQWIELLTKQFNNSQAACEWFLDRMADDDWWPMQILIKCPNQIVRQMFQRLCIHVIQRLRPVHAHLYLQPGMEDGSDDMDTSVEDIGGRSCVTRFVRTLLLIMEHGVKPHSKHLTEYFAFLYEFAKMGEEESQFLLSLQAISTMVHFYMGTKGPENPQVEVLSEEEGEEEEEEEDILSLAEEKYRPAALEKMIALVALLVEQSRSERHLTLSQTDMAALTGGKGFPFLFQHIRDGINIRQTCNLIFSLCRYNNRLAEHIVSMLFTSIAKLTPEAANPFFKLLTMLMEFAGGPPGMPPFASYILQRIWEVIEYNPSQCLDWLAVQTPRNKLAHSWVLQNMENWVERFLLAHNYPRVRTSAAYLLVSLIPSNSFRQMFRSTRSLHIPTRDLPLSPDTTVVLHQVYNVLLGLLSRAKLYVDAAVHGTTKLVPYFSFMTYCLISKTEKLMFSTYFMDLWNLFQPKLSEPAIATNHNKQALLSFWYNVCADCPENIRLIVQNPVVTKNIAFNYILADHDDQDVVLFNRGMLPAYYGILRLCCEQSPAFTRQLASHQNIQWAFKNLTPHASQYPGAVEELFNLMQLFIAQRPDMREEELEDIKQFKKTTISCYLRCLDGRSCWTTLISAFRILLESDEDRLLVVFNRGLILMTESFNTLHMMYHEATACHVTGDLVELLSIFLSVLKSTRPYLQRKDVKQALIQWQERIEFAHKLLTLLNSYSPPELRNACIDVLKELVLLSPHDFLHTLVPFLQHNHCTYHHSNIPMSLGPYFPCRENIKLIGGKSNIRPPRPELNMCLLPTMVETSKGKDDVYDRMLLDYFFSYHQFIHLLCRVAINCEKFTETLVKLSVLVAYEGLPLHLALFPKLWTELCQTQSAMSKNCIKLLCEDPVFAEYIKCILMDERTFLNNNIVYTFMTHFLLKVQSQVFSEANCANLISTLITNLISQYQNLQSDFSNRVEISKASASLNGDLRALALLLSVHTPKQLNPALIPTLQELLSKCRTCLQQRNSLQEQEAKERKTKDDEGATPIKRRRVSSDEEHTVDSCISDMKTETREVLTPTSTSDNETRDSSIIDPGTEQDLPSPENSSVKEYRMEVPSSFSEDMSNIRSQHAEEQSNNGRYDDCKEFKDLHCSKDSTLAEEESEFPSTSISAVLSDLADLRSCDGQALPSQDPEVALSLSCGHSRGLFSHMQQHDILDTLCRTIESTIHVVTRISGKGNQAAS
UniProt Q9NYH9: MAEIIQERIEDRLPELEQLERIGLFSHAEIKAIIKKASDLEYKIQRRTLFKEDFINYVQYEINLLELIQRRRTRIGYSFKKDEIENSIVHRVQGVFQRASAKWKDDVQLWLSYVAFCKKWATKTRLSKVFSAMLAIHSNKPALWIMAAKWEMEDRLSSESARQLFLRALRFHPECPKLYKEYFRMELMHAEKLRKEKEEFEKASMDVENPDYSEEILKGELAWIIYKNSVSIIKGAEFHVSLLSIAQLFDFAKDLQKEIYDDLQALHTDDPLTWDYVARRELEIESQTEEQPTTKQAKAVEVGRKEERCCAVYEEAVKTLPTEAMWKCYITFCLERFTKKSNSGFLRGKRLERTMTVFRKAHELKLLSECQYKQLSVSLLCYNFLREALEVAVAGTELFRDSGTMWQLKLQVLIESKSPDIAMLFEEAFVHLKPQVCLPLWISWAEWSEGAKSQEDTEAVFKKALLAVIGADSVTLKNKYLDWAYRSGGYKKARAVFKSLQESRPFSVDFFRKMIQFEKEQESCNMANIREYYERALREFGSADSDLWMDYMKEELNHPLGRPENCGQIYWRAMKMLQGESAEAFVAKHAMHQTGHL
UniProt O94782, 54-73: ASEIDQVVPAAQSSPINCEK
UniProt Q4G0F5, whole entry, looked up: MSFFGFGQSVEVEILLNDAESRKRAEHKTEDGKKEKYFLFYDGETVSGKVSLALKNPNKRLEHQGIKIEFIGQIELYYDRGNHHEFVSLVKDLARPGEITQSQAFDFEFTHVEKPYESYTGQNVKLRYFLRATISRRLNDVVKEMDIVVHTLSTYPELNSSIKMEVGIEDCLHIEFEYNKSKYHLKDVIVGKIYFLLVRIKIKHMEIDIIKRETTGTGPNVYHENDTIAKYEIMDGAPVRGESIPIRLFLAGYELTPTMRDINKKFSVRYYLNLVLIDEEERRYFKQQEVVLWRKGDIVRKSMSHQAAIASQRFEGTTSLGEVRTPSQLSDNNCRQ
UniProt Q16831, 139-164: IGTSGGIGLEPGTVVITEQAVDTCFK

The list shows a part of the results. The data scatter; read single values as rough.

Compound in the first assay: ClCC(=O)N[C@@H]1CCCc2ccccc12
The assay can be described thus: log2 mean competition ratio of IA-DTB cysteine labelling (DMSO/compound) (log2 ratio); higher = stronger cysteine engagement by compound. The settings on record: 50 µM; treatment time: 4 h; cell line lysate: HEK293T. As for the experimental part:
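IA-DTB competitive cysteine chemoproteomics in HEK293T RIPA lysate. Lysates were treated with compound 29 or 30 at 50 or 200 µM for 4 h, then IA-DTB (500 µM, 1 h), trypsin-digested, NeutrAvidin-enriched and analysed by diaPASEF. Competition ratio = intensity DMSO / intensity compound (n=4 treated, n=64 DMSO); binding: mean log2 CR ≥ 1 and p ≤ 0.05 plus QC filters. Target is the cysteine site.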
With VPS11 C734 (UniProt Q9H270), the “log2 mean competition ratio” value was -0.314.

Consider VPS18 C806 (UniProt Q9P253), for which the “log2 mean competition ratio” value was found to be 0.0976.

As for URI1 C167 (UniProt O94763), the “log2 mean competition ratio” value was -0.401.

As for VAPB C121 (UniProt O95292), the “log2 mean competition ratio” value turned out to be 0.156.

As for USP34 C1674 (UniProt Q70CQ2), the “log2 mean competition ratio” value was -0.0646.

Consider UTRN C862 (UniProt P46939), for which the “log2 mean competition ratio” value is 0.11.

As for USP34 C907 (UniProt Q70CQ2), the “log2 mean competition ratio” value was 0.921.

Regarding UQCC1 C124 (UniProt Q9NVA1), the “log2 mean competition ratio” value is -0.0699.

In the case of UBXN4 C155 (UniProt Q92575), the “log2 mean competition ratio” value stood at 0.137.

As to USP28 C701 (UniProt Q96RU2), the “log2 mean competition ratio” value was -0.386.

For VPS13B C3148 (UniProt Q7Z7G8), the “log2 mean competition ratio” value is -0.361.

Turning to UPF2 C687 (UniProt Q9HAU5), the “log2 mean competition ratio” value turned out to be 0.0353.

Regarding USP54 C1270 (UniProt Q70EL1), the “log2 mean competition ratio” value is -0.118.

As for UTP6 C524 (UniProt Q9NYH9), the “log2 mean competition ratio” value is 0.105.

For the target UBR5 C2094 (UniProt O95071), the “log2 mean competition ratio” value was determined as 0.0246.

On to URGCP C49 (UniProt Q8TCY9), for which the “log2 mean competition ratio” value was -0.593.

Consider USP1 C71 (UniProt O94782), for which the “log2 mean competition ratio” value was -0.373.

VPS26B C334 (UniProt Q4G0F5): the “log2 mean competition ratio” value is -0.156.

For the target UPP1 C162 (UniProt Q16831), the “log2 mean competition ratio” value worked out at 0.0324.

Take USP22 C494 (UniProt Q9UPT9): the “log2 mean competition ratio” value is -0.153.

The same assay, now with this note: 200 µM; treatment time: 4 h; cell line lysate: HEK293T.
For VPS11 C734 (UniProt Q9H270), the “log2 mean competition ratio” value was found to be 0.105.

Turning to VPS18 C806 (UniProt Q9P253), the “log2 mean competition ratio” value was -0.12.

URI1 C167 (UniProt O94763): the “log2 mean competition ratio” value is -0.143.

As to VAPB C121 (UniProt O95292), the “log2 mean competition ratio” value is -0.0476.

For USP34 C1674 (UniProt Q70CQ2), the “log2 mean competition ratio” value was determined as 0.0734.

With UTRN C862 (UniProt P46939), the “log2 mean competition ratio” value is 0.291.

On to USP34 C907 (UniProt Q70CQ2), for which the “log2 mean competition ratio” value was -0.000959.

On to UQCC1 C124 (UniProt Q9NVA1), for which the “log2 mean competition ratio” value was -0.293.

Take UBXN4 C155 (UniProt Q92575): the “log2 mean competition ratio” value was -0.114.

As to USP28 C701 (UniProt Q96RU2), the “log2 mean competition ratio” value amounted to 0.48.

For VPS13B C3148 (UniProt Q7Z7G8), the “log2 mean competition ratio” value was 0.0191.

UPF2 C687 (UniProt Q9HAU5): the “log2 mean competition ratio” value came to 0.00341.

Regarding USP54 C1270 (UniProt Q70EL1), the “log2 mean competition ratio” value is 0.213.

Regarding UTP6 C524 (UniProt Q9NYH9), the “log2 mean competition ratio” value is 0.0205.

With UBR5 C2094 (UniProt O95071), the “log2 mean competition ratio” value was -0.0591.

For the target URGCP C49 (UniProt Q8TCY9), the “log2 mean competition ratio” value came to 0.146.

Turning to USP1 C71 (UniProt O94782), the “log2 mean competition ratio” value turned out to be 0.00964.

Consider VPS26B C334 (UniProt Q4G0F5), for which the “log2 mean competition ratio” value came out at 0.191.

As to UPP1 C162 (UniProt Q16831), the “log2 mean competition ratio” value was 0.119.

Turning to USP22 C494 (UniProt Q9UPT9), the “log2 mean competition ratio” value was found to be 0.549.
